Test results taken from the supplement of paper PMC10849652.
Some of the results follow.

Chains of the proteins cited; added tags and fusions are not shown. Lines headed by an entry give the natural chain unless they say otherwise; changes in a name come on top.
UniProt Q8IW50: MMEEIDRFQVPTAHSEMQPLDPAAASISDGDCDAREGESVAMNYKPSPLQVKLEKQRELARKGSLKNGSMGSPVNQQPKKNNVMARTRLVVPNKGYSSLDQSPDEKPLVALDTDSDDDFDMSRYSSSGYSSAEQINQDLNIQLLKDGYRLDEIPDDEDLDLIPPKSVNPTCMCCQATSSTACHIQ
UniProt Q8IXS8: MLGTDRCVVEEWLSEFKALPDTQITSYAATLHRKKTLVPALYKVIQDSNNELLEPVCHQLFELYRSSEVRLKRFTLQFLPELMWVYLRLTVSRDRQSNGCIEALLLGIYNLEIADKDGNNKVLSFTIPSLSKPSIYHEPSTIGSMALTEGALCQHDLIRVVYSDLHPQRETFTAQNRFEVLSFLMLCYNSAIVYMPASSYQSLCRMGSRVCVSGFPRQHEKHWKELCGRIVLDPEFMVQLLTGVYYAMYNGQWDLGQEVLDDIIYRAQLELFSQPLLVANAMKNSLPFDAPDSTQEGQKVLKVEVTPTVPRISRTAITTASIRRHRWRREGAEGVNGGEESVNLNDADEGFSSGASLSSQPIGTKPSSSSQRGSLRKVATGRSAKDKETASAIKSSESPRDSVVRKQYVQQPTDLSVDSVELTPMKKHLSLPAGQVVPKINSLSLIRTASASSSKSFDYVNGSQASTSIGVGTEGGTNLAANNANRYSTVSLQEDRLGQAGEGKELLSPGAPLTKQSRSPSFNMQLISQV
UniProt P41161: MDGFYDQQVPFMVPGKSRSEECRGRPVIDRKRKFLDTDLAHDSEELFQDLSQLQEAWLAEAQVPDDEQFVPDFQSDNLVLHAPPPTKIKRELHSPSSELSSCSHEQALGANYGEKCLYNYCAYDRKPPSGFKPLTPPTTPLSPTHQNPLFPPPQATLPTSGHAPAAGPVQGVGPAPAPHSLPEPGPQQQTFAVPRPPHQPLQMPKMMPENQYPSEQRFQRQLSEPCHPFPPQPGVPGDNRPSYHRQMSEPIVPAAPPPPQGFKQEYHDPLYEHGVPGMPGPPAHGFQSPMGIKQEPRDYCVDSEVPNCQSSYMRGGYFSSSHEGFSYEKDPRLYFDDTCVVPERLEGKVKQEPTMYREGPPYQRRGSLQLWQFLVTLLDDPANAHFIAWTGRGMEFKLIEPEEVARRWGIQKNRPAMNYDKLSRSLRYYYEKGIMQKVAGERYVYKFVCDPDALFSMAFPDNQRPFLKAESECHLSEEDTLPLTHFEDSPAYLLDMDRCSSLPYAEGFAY
UniProt O95718: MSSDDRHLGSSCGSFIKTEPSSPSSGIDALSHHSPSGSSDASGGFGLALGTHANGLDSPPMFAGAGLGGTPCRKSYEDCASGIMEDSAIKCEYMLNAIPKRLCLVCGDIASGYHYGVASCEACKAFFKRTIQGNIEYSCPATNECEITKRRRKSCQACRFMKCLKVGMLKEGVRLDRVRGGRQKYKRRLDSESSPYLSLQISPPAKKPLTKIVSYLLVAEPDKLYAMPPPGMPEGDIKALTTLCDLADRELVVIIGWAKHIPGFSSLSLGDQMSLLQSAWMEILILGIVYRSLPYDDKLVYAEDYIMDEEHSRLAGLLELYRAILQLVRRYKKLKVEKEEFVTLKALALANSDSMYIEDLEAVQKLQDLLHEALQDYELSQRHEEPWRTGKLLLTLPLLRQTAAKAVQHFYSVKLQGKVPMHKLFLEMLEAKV
UniProt Q9Y2D4: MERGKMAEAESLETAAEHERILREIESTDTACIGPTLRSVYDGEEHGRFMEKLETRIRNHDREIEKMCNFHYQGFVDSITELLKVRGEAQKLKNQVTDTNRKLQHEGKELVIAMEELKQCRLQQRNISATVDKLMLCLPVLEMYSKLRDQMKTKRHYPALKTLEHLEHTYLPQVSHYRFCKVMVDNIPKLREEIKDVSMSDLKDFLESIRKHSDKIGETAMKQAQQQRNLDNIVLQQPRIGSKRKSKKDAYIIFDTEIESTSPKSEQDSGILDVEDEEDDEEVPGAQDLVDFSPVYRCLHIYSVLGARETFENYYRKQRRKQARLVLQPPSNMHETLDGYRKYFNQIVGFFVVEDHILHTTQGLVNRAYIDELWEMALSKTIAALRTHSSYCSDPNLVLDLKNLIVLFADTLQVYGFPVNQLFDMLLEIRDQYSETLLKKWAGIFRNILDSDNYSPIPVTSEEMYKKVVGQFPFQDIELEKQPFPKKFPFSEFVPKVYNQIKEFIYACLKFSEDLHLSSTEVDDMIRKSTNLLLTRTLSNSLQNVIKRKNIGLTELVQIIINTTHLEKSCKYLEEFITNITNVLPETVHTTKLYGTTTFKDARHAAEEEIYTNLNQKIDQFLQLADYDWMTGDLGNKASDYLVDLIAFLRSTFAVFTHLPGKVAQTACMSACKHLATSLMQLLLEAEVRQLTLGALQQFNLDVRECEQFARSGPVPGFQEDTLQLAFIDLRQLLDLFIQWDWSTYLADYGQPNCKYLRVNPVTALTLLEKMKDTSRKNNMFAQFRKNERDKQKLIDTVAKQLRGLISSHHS
UniProt Q6PEV8: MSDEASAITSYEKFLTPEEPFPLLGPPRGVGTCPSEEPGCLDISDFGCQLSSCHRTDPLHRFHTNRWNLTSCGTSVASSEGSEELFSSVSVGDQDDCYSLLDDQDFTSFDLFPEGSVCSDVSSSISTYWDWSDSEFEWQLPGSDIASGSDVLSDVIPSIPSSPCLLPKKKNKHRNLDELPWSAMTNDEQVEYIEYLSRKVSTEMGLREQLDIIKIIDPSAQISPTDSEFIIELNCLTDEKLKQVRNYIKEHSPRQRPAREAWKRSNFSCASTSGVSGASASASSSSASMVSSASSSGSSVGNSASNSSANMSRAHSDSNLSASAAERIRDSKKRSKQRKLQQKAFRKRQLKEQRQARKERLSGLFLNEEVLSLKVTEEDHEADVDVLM
UniProt Q56NI9: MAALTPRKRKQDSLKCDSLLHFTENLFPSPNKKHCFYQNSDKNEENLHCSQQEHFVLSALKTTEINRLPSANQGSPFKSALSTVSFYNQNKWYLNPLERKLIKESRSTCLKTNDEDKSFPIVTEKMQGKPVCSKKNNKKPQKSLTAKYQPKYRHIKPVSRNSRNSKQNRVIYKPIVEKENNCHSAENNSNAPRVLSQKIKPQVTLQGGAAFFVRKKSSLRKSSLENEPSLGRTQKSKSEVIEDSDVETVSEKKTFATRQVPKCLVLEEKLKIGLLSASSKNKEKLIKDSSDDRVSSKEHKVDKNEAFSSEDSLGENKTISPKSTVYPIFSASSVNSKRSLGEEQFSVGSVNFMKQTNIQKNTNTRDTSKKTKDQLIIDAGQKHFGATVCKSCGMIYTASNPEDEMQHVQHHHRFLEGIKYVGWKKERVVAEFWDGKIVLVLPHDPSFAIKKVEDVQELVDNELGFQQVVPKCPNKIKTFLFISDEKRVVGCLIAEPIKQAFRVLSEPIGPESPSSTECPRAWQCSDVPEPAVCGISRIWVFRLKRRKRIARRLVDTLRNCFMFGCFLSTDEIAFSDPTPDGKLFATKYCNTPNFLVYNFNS
UniProt P25116: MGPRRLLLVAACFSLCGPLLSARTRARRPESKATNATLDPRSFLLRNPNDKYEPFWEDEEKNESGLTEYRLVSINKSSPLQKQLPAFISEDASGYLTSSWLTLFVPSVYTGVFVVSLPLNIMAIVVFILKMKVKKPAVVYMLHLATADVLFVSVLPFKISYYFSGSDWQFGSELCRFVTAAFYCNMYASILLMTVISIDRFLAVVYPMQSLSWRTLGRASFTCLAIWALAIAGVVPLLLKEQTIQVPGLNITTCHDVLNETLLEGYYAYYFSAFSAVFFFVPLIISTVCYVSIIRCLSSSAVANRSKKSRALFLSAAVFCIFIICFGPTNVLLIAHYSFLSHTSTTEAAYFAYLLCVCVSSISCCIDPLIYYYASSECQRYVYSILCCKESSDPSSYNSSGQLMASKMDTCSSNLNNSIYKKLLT
UniProt Q9NYF3: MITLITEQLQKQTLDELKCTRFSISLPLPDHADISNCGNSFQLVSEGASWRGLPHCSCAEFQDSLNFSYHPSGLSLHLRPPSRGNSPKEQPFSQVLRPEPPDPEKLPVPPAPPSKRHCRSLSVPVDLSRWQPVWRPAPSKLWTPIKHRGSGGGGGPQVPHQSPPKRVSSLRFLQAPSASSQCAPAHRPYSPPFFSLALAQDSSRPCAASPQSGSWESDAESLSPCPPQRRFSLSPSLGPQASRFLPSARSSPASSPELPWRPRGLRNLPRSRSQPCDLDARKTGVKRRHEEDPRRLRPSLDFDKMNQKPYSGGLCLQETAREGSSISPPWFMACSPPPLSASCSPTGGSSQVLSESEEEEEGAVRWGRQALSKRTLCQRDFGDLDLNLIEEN
UniProt P50549: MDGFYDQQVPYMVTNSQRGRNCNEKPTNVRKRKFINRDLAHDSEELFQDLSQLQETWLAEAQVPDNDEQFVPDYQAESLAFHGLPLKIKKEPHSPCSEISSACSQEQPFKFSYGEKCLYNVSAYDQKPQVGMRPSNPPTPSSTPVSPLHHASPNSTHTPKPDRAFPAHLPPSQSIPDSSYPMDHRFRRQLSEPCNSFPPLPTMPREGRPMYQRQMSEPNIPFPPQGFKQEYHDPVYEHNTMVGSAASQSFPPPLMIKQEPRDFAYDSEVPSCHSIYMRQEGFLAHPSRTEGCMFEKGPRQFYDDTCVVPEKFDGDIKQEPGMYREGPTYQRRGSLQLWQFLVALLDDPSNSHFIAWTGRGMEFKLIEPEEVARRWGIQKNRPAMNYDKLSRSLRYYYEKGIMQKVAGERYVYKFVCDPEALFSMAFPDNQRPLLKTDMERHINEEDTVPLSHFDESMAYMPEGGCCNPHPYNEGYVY
UniProt P11474: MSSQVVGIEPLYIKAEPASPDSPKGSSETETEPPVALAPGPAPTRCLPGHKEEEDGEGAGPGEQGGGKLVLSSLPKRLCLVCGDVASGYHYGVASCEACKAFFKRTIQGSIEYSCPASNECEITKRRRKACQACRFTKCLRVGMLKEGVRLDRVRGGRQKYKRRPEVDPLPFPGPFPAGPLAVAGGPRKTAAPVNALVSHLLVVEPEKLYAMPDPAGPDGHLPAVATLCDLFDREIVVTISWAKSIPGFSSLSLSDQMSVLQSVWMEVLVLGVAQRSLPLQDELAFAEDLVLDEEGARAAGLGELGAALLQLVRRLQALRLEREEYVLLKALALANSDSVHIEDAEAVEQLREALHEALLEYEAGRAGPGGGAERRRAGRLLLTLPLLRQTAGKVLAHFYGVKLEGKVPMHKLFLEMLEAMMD

Columns and labels:
Test in all cases: log2 fold change, soluble protein after heating vs DMSO (PISA); higher = thermal stabilisation; K562 lysate, 10 uM; active = over 0.2 and 3.5 SD of the protein, either way, in both replicates (recomputed)
vorinostat = compound: O=C(CCCCCCC(=O)Nc1ccccc1)NO [vorinostat]
How it was run: (§1)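 K562 pellets were dounce-homogenised in PBS pH 7.4 containing 1 mM MgCl2, and the crude extract, at 1 mg/mL protein, was exposed to 10 μM compound for 30 min. Aliquots were heated for 3 min across 48°C-58°C, pooled, brought to 0.5% NP-40 at 4°C and spun at 21,000xg for 90 min, with the supernatant taken as soluble protein. TMTpro 16plex LC-MS/MS with equalised channel sums quantified that protein. Values are log-two fold changes in thermal stability relative to solvent controls, taken from duplicates.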

silmitasertib = compound: O=C(O)c1ccc2c(c1)nc(Nc1cccc(Cl)c1)c1ccncc12 [silmitasertib]
How it was run: as §1

[1] = compound: O=C1NC(=O)C(c2cnc3ccccn23)=C1c1cn2c3c(cc(F)cc13)CN(C(=O)N1CCCCC1)CC2
How it was run: as §1

entospletinib = compound: c1cn2cc(-c3ccc4cn[nH]c4c3)nc(Nc3ccc(N4CCOCC4)cc3)c2n1 [entospletinib]
How it was run: as §1

[2] = compound: NCC(=O)Nc1ccc(-n2nc(C(F)(F)F)cc2-c2ccc3c(ccc4ccccc43)c2)cc1
How it was run: as §1

FAM219A (UniProt Q8IW50)
log2 fold change (vorinostat): inactive: 0.019
log2 fold change (silmitasertib): inactive: -0.029
log2 fold change [1]: inactive: 0.128
log2 fold change (entospletinib): inactive: -0.101

FAM126B (UniProt Q8IXS8)
log2 fold change [2]: inactive: -0.097
log2 fold change (vorinostat): inactive: -0.336
log2 fold change (silmitasertib): inactive: -0.064
log2 fold change (entospletinib): inactive: 0.092

FAM49B, A0A1W2PRQ0
log2 fold change [2]: inactive: 0.19
log2 fold change (entospletinib): inactive: 0.13

ETV5 isoform 2 (UniProt P41161)
log2 fold change [2]: inactive: 0.017
log2 fold change (entospletinib): inactive: 0.047

ESRRB isoform 1 (UniProt O95718)
log2 fold change (silmitasertib): inactive: 0.087

EXOC6B (UniProt Q9Y2D4)
log2 fold change [2]: inactive: -0.041
log2 fold change [1]: inactive: -0.012
log2 fold change (entospletinib): inactive: 0.166

FAM199X (UniProt Q6PEV8)
log2 fold change [1]: inactive: 0.133

ESCO2 (UniProt Q56NI9)
log2 fold change (vorinostat): inactive: -0.43
log2 fold change (silmitasertib): inactive: -0.107
log2 fold change [1]: inactive: -0.133
log2 fold change (entospletinib): inactive: 0.153

F2R (UniProt P25116)
log2 fold change [1]: inactive: 0.011

FAM53C (UniProt Q9NYF3)
log2 fold change (vorinostat): inactive: -0.183
log2 fold change (silmitasertib): inactive: 0.113
log2 fold change [1]: inactive: 0.023
log2 fold change (entospletinib): inactive: 0.03

ETV1 (UniProt P50549)
log2 fold change (vorinostat): inactive: -0.137
log2 fold change (silmitasertib): inactive: 0.146

ESRRA (UniProt P11474)
log2 fold change [2]: inactive: -0.094
log2 fold change (silmitasertib): inactive: 0.063
log2 fold change [1]: inactive: 0.026
log2 fold change (entospletinib): inactive: -0.034

FAM120A, A0A494C0Y9
log2 fold change (vorinostat): inactive: -0.071
log2 fold change (silmitasertib): inactive: -0.075
